# This list was built around the results that the source calls inconclusive (neither active nor inactive); the mix of calls is not that of the screen. For some of these results: Potencies beside an inconclusive call are fits to weak or partial responses and may not hold up. For some of these results: A note “side channel” means that the fit belongs to a control or component signal, not to the main read-out. Active and inactive are the calls of the source. Unless noted, calls follow the shape of the dose curve; as a rule, active = well fitted curve in the direction sought with a large enough effect; inconclusive = small, poorly fitted or top-dose-only effect, or another doubt; inactive = no such curve, though single readings can be large; an effect the other way counts as inactive or inconclusive.
# The chains behind the UniProt entries cited, without tags or fusion partners. Where a name states a change or a piece, a line headed by the entry shows the natural chain unless it says otherwise.
# UniProt P10828: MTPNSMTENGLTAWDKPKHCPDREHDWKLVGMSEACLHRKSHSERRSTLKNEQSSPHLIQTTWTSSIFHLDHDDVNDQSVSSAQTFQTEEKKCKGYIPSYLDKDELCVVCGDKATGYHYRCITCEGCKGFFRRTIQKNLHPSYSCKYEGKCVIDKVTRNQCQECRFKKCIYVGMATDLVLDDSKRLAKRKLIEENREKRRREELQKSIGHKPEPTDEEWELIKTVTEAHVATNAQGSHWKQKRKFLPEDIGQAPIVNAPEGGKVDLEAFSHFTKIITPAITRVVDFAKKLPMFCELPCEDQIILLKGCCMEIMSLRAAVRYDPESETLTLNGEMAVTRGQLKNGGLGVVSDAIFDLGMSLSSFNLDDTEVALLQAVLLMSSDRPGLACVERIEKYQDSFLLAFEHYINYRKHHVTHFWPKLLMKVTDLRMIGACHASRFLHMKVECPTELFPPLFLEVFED
# UniProt P54132: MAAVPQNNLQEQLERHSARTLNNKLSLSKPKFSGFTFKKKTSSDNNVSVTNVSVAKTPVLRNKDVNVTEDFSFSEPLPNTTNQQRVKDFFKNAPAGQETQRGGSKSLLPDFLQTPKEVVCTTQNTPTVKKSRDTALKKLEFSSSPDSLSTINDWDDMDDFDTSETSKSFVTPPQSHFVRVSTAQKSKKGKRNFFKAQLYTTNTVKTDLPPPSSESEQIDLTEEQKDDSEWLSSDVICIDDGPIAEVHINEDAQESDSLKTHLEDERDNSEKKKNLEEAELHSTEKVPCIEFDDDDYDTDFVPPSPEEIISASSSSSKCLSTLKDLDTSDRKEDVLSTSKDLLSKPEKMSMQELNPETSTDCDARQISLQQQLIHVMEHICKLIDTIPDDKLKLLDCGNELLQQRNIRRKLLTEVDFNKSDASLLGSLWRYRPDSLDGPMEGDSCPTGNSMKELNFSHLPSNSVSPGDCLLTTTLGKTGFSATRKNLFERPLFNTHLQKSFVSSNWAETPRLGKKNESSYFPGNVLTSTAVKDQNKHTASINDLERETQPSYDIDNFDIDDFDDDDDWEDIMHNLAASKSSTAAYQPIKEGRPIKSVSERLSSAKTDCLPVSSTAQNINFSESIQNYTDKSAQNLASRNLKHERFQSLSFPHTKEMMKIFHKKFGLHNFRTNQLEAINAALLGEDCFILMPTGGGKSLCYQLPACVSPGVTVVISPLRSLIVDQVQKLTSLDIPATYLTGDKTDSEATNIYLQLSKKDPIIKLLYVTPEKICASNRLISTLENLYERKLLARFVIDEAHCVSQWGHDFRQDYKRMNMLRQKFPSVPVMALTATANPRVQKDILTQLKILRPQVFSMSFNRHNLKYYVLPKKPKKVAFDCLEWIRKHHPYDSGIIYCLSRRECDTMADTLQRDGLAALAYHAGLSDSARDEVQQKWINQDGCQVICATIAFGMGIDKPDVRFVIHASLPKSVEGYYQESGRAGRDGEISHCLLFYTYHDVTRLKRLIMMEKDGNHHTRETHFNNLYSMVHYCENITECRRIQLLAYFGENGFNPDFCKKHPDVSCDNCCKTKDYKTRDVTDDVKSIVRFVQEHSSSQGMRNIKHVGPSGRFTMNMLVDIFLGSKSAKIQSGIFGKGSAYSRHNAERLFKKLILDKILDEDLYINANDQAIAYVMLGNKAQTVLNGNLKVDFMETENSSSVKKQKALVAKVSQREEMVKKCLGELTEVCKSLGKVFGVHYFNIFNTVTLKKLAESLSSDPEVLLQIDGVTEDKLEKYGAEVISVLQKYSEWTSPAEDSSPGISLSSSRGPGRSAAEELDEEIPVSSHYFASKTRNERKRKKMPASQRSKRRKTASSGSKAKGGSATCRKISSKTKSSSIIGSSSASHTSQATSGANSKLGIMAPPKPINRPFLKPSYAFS
# UniProt P36969, whole entry, looked up: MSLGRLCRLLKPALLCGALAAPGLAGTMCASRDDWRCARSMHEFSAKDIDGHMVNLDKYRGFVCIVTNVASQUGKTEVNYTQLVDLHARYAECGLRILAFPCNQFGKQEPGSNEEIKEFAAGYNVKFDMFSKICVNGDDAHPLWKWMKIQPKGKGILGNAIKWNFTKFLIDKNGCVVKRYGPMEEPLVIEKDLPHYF
# UniProt O89049, whole entry, looked up: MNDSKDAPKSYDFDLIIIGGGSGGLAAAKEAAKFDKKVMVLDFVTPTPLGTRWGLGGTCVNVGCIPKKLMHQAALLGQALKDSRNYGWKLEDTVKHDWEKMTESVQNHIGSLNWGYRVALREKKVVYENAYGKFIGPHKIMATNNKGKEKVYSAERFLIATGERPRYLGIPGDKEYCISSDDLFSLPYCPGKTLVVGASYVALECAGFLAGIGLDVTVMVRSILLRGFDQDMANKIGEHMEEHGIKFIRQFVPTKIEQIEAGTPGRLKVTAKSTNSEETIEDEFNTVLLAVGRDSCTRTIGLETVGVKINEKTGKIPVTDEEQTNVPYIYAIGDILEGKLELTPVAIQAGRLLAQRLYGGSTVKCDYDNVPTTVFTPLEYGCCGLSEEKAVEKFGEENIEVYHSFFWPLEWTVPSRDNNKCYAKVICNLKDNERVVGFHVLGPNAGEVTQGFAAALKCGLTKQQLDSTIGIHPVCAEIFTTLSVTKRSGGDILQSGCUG
# Experiments:
# [1] = MultiTox-Fluor Cytotoxicity Assay - LYMP1-001 - Live Cells (AID 947); also: potency is read from the fitted curve at half-maximal effect
# [2] = Cell Viability - LYMP2-019 (AID 973);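 also: cells exposed to compound for 24 h at 37 °C; 0% = DMSO alone and full effect = 92 µM tetraoctylammonium bromide; nearly all actives have a fitted effect of over 55% in size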
# Procedure, shortened: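 Luminescent ATP read-out (CellTiter-Glo, 30 min room temperature) served as the viability measure after 24 hr treatment of lymphoblastoid cells at 37 C. Concentration-response data were fitted to the Hill equation for AC50.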
# [3] = qHTS Assay for Identification of Small Molecule Inducers of Hypoxia Response (AID 2120; active = well fitted curve in the direction sought with a large enough effect in the signal ratio, with a control signal flat, not every such curve was filed as active; inconclusive = small, poorly fitted or top-dose-only effect, or a change in a side signal; inactive = no such curve, though single readings can be large or run the other way; the % refers to the signal ratio; also: 0% is about no effect); settings: hypoxia response reporter cells, beta-lactamase ratio readout; activation: at 104 µM (top of the series)
# Procedure, shortened: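 ME-180 HRE-bla cells plated in Opti-MEM/0.5% dialyzed FBS, rested 4-5 h, then dosed with compound titrations by pin tool. After 17 h at 37 degrees C, CCF4 dye loaded 2.5 h at RT; 460/530 nm ratio gave %Activity and AC50.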
# [4] = biological target: Peroxisome proliferator-activated receptor gamma (Homo sapiens) (UniProt P37231); experiment: qHTS assay for small molecule agonists of peroxisome proliferator-activated receptor gamma signaling (AID 588536; active = well fitted curve in the direction sought with a large enough effect in the signal ratio, with a control signal flat, not every such curve was filed as active; inconclusive = small, poorly fitted or top-dose-only effect, or effect the other way, or a change in a side signal; inactive = no such curve, though single readings can be large or run the other way; the % refers to the signal ratio; also: potency is read from the fitted curve at half-maximal effect); settings: HEK293 PPARg-UAS-bla, beta-lactamase ratio, 16 h; activation: at 76.7 µM (top of the series), percent of rosiglitazone response, DMSO as zero
# Procedure, shortened: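 Ratiometric blue/green fluorescence (405 nm excitation; 460 and 530 nm emission) from CCF4-loaded HEK293 reporter cells serves as signal. Exposure to test compounds lasts 16 h at 37 C in medium containing 1% charcoal/dextran-treated serum.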
# [5] = biological target: Peroxisome proliferator-activated receptor gamma (Homo sapiens) (UniProt P37231); experiment: qHTS assay for small molecule antagonists of peroxisome proliferator-activated receptor gamma signaling (AID 588537; active = well fitted inhibition curve with a large enough effect in the signal ratio, with a control signal flat, not every such curve was filed as active; inconclusive = small, poorly fitted or top-dose-only effect, or effect the other way, or a change in a side signal; the % refers to the signal ratio;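 also: reporter cells co-stimulated with 50 nM rosiglitazone agonist during compound treatment; % of control where 0% means no effect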); settings: HEK293 PPARg-UAS-bla, beta-lactamase ratio, antagonist mode; activity, negative = inhibition: at 76.8 µM (top of the series)
# Procedure, shortened: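 Antagonist mode, beta-lactamase reporter in HEK293; charcoal/dextran FBS 1%; 3000 cells/well, 37 C 6-6.5 h; cpd titration + rosiglitazone 50 nM final, 16 h 37 C; CCF4, 2 h RT; 460/530 nm; Hill fit → IC50, efficacy.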
# [6] = biological target: Thyroid hormone receptor beta (Homo sapiens) (UniProt P10828); experiment: qHTS assay for small molecule antagonists of thyroid hormone receptor beta signaling (AID 588547; active = well fitted inhibition curve with a large enough effect in the signal ratio, with a control signal flat, not every such curve was filed as active; inconclusive = small, poorly fitted or top-dose-only effect, or effect the other way, or a change in a side signal; the % refers to the signal ratio;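 also: cells stimulated with 0.4 nM T3 agonist during compound exposure; % is scaled to controls: 0 for no effect and ±100 for the full control effect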); settings: TR-UAS-bla HEK293, beta-lactamase ratio, antagonist mode, 18 h
# Procedure, shortened: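 Inhibition of T3-driven (0.4nM final) beta-lactamase reporter activity was measured over 0.59 nM to 92 uM compound after 18 h at 37 C. The cells were GripTite HEK293 TR-UAS-bla in charcoal/dextran-stripped serum, with CCF4 ratio read-out and IC50 from Hill fits.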
# [7] = qHTS assay for small molecule agonists of the antioxidant response element (ARE) signaling pathway (AID 651741; active = well fitted activation curve with a large enough effect in the signal ratio; inconclusive = small, poorly fitted or top-dose-only effect, or effect the other way, or a change in a side signal; the % refers to the signal ratio; also: potency is read from the fitted curve at half-maximal effect); settings: HepG2 ARE-bla reporter, beta-lactamase FRET ratio, 16 h; activation: at 96 µM (top of the series)
# Procedure, shortened: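 Quantitative HTS in HepG2 cells stably expressing an ARE-beta-lactamase reporter; 16 h compound exposure at 37 C, followed by 2 h room-temperature incubation with LiveBLAzer B/G FRET substrate and fluorescence measurement.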
# [8] = qHTS assay to identify small molecules that stimulate interleukin-8 (IL-8) secretion (AID 651758; active = well fitted activation curve with a large enough effect in the signal ratio; inconclusive = small, poorly fitted or top-dose-only effect, or effect the other way, or a change in a side signal; the % refers to the signal ratio; also: 0% is about no effect); settings: HTRF ratio (665/615); activation: at 92.2 µM (top of the series)
# Procedure, shortened: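 Secreted IL-8 measured by TR-FRET sandwich (cryptate and XL665 antibodies) from THP-1 cells exposed to compound overnight (16 hrs, 37 C).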
# [9] = qHTS for differential inhibitors of proliferation of Plasmodium falciparum line 7G8 (AID 1815);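 also: parasite growth measured after three days of incubation; plate controls were vehicle wells for no effect and reference inhibitor wells for full effect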
# [10] = qHTS for differential inhibitors of proliferation of Plasmodium falciparum line HB3 (AID 1886); settings: Potency: Plasmodium falciparum HB3 proliferation inhibition;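 also: parasites grown with compound for 72 h before SYBR Green readout; plate controls were vehicle for no effect and reference inhibitor for full effect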
# [11] = biological target: RecQ-like DNA helicase BLM (Homo sapiens) (UniProt P54132); experiment: qHTS Validation Assay for Inhibitors of Bloom's syndrome helicase (BLM) (AID 2364); also: potency is read from the fitted curve at half-maximal effect
# Procedure, shortened: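 Forked 20-bp duplex substrate (200 nM, TAMRA/BHQ-2) plus 2 mM ATP added after 15 min compound preincubation with 50 nM enzyme, pH 8.0, poly(dI-dC) 2.5 ug/ml. Strand separation followed by fluorescence (525/598 nm) over 2 h, normalized to enzyme-free and DMSO controls.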
# [12] = Validation screen for inhibitors of Lassa infection (AID 463096; calls by dose curve; also: potency is read from the fitted curve at half-maximal effect; as to activity change, negative = inhibition: % is scaled to controls: 0 for no effect and ±100 for the full control effect)
# [13] = biological target: Phospholipid hydroperoxide glutathione peroxidase GPX4 (Homo sapiens) (UniProt P36969); experiment: Primary qHTS Assay for Inhibitors of Recombinant Selenoprotein Glutathione Peroxidase 4 (GPX4) (AID 1845192); settings: activity change, negative = inhibition: at 50 µM (top of the series); also: potency is read from the fitted curve at half-maximal effect; nearly all actives have a fitted effect of over 65% in size
# Procedure, shortened: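 NADPH consumption, followed by fluorescence at 340/450 nm between 0 and 15 min, reports GPX4 activity via coupled glutathione reductase (100 nM). Enzyme 200 nM was pre-exposed to compound 30 min; 0.5 mM cumene hydroperoxide and 1 mM GSH served as substrates.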
# [14] = qHTS for differential inhibitors of proliferation of Plasmodium falciparum line 3D7 (AID 1876); also: potency is read from the fitted curve at half-maximal effect
# [15] = qHTS for differential inhibitors of proliferation of Plasmodium falciparum line D10 (AID 1877);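 also: potency is read from the fitted curve at half-maximal effect; parasites grown with compound for 72 h before DNA staining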
# [16] = biological target: Thioredoxin reductase 1, cytoplasmic (Rattus norvegicus) (UniProt O89049); experiment: qHTS Assay for Inhibitors of Mammalian Selenoprotein Thioredoxin Reductase 1 (TrxR1) (AID 488773); settings: Potency: inhibition; also: potency is read from the fitted curve at half-maximal effect; nearly all actives have a fitted effect of over 40% in size
# Procedure, shortened: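 Steps: enzyme (90 nM) plus NADPH (400 uM final), 5 min at ~22 deg C; compound added, 15 min; selenite (400 uM final) added; fluorescence followed for 8 min. Concentration-response curves derived from the normalized delta values.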
# [17] = qHTS Assay for Modulators of Human Peripheral Myelin Protein 22 (PMP22) Expression/Activity (AID 1967; active = well fitted curve in the direction sought with a large enough effect in the signal ratio; inconclusive = small, poorly fitted or top-dose-only effect, or effect the other way, or a change in a side signal; inactive = no such curve, though single readings can be large or run the other way; the % refers to the signal ratio; also: potency is read from the fitted curve at half-maximal effect); settings: Cell-based PMP22 reporter, dual-color luciferase ratio, mouse Pmp22 promoter in mouse Schwann cells; activity change (ratio): at 115 µM (top of the series)
# Procedure, shortened: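 Readout is the corrected green/red luminescence ratio after 24 h compound exposure, normalised to untreated cells (0%). Engineered MSC80 mouse Schwann cells express green luciferase from the mouse Pmp22 promoter and red luciferase from EF-alpha as internal control.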
# [18] = Quantitative high throughput screen for delayed death inhibitors of the malarial parasite plastid, 96 hour incubation (AID 488745); also: potency is read from the fitted curve at half-maximal effect; nearly all actives have a fitted effect of over 70% in size
# Procedure, shortened: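 Infected erythrocytes were added to compound in Albumax-supplemented RPMI 1640 at 0.1% parasitemia and 2% hematocrit (final), incubated 96 h at 37 C under 5% CO2, then luciferase reagent was added and luminescence measured.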
# [19] = system: Nanoluciferase (engineered Oplophorus gracilirostris luciferase); experiment: Primary Nanoluciferase (NLuc) qHTS assay for identification of artifact compounds. (AID 1845222);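 also: NLuc secreted into diluted conditioned medium of S16 cells; 0% = DMSO and -100% = no enzyme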
# Procedure, shortened: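 NLuc from S16 cell medium (1:55) plus test compounds, 15 min, room temperature. Luminescence after Nano-Glo (1:100) addition, 5 min.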
smiles,measurement,setting,value
C=COC(C)=O,Potency,[1],"inconclusive: 0.631 µM [cytotoxic, full curve, poor fit]"
same,Potency,[2],inactive
same,Potency,[3],inactive
same,Potency,[4],"inconclusive: 35.5 µM [side channel, falling, partial curve, poor fit]"
same,"activity, negative = inhibition",[5],inconclusive: 3.21%
same,activity change % (negative = inhibition),[6],inactive: 0.373%
same,Potency,[7],"inconclusive: 66.8 µM [activator, partial curve]"
same,Potency,[8],inactive
Nc1ncnc2c1ncn2[C@@H]1O[C@H](COP(=O)(O)CP(=O)(O)OP(=O)(O)O)[C@H](O)[C@H]1O,Potency,[9],inactive
same,Potency,[10],inactive
same,Potency,[11],"inconclusive: 44.7 µM [inhibitor, partial curve]"
same,Potency,[12],"inconclusive: 20 µM [activator, partial curve, poor fit]"
C[C@H]1[C@H](O)[C@@H](C)/C=C/C=C/CC/C=C/C=C/C=C/C=C/C(OC2O[C@H](C)[C@@H](O)[C@H](N)[C@@H]2O)CC2O[C@](O)(CC(O)C(O)CCC(O)CC(O)CC(O)CC(=O)O[C@H]1C)CC(O)C2C(=O)O (some centres not stated),Potency,[13],"inconclusive: 35.5 µM [inhibitor, single point]"
CC[N+](C)(C)c1cccc(O)c1,Potency,[14],"inconclusive: 8.91 µM [inhibitor, partial curve]"
same,Potency,[15],"inconclusive: 7.08 µM [inhibitor, partial curve, poor fit]"
same,Potency,[11],"inconclusive: 0.0025 µM [inhibitor, full curve, poor fit]"
same,Potency,[16],"inconclusive: 4.74 µM [inhibitor, partial curve]"
O=c1[nH]c(=O)n([C@H]2C[C@H](O)[C@@H](CO)O2)cc1/C=C/Br,Potency,[17],"inconclusive: 84.9 µM [cytotoxic, partial curve]"
same,Potency,[11],"inconclusive: 25.1 µM [inhibitor, partial curve, poor fit]"
same,Potency,[12],inactive
same,Potency,[18],"inconclusive: 13.1 µM [activator, single point]"
CCc1c(C(=O)C(N)=O)c2c(OCC(=O)OC)cccc2n1Cc1ccccc1,Potency,[19],inactive

# 2 successive entries from above, for reference:
smiles,measurement,setting,value
Nc1ncnc2c1ncn2[C@@H]1O[C@H](COP(=O)(O)CP(=O)(O)OP(=O)(O)O)[C@H](O)[C@H]1O,Potency,[12],"inconclusive: 20 µM [activator, partial curve, poor fit]"
C[C@H]1[C@H](O)[C@@H](C)/C=C/C=C/CC/C=C/C=C/C=C/C=C/C(OC2O[C@H](C)[C@@H](O)[C@H](N)[C@@H]2O)CC2O[C@](O)(CC(O)C(O)CCC(O)CC(O)CC(O)CC(=O)O[C@H]1C)CC(O)C2C(=O)O (some centres not stated),Potency,[13],"inconclusive: 35.5 µM [inhibitor, single point]"
